Data taken from the odorant receptor screen of Mainland et al. (2015).
Where “and” joins values, the source holds several entries; their conditions need not be identical. Equal values may be shown once. The list shows a part of the results. Each value is one well over the wells without odorant, computed here; the data are noisy.

Key:
Assay in all cases: odorant receptor activation (CRE luciferase / Renilla) (fold of no-odor wells); higher = more activation
Conditions in all cases: 100 µM
OR1J2 clone 1443 = tested on: OR1J2 clone 1443
OR1J4 clone 1429 = tested on: OR1J4 clone 1429
OR1K1 clone 1315 = tested on: OR1K1 clone 1315
OR1L1 clone 1379 = tested on: OR1L1 clone 1379
OR1L3 clone 1090 = tested on: OR1L3 clone 1090
OR1L4 G234R clone 1102 = tested on: OR1L4 G234R clone 1102
[1] = tested on: OR1L6 Q23K/C150Y/I215T/R221Q/M223I/G234R clone 1539
OR1L8 clone 1088 = tested on: OR1L8 clone 1088
OR1M1 clone 1198 = tested on: OR1M1 clone 1198
OR1N1 clone 1463 = tested on: OR1N1 clone 1463
[2] = tested on: OR1N2 W23R/V230G/T287M clone 1105
[3] = tested on: OR1N2 W37R/V244G/T301M clone 1350
OR1N2 clone 1505 = tested on: OR1N2 clone 1505
[4] = tested on: OR1Q1 Q24R/I163M clone 1103
OR1S1 clone 1455 = tested on: OR1S1 clone 1455
OR1S2 I46T clone 1137 = tested on: OR1S2 I46T clone 1137
OR2A1 clone 1078 = tested on: OR2A1 clone 1078
OR2A12 clone 1085 = tested on: OR2A12 clone 1085
OR2A14 Indel clone 1540 = tested on: OR2A14 Indel clone 1540
OR2A14 clone 1083 = tested on: OR2A14 clone 1083

Row | Structure (SMILES) | odorant receptor activation (OR1J2 clone 1443) | odorant receptor activation (OR1J4 clone 1429) | odorant receptor activation (OR1K1 clone 1315) | odorant receptor activation (OR1L1 clone 1379) | odorant receptor activation (OR1L3 clone 1090) | odorant receptor activation (OR1L4 G234R clone 1102) | odorant receptor activation [1] | odorant receptor activation (OR1L8 clone 1088) | odorant receptor activation (OR1M1 clone 1198) | odorant receptor activation (OR1N1 clone 1463) | odorant receptor activation [2] | odorant receptor activation [3] | odorant receptor activation (OR1N2 clone 1505) | odorant receptor activation [4] | odorant receptor activation (OR1S1 clone 1455) | odorant receptor activation (OR1S2 I46T clone 1137) | odorant receptor activation (OR2A1 clone 1078) | odorant receptor activation (OR2A12 clone 1085) | odorant receptor activation (OR2A14 Indel clone 1540) | odorant receptor activation (OR2A14 clone 1083)
1 | CCCCCCCCCCC=O [undecanal] | 1.12 | 1.17 | 1.14 | 1.33 | 1.18 | 1.03 | 0.898 | 1.11 | 1.2 | 1.28 | 1.17 | 0.647 | 1.18 | 1.33 | 1.24 | 1.2 | 1.02 | 1.03 | 0.824 | 1.15
2 | CC(C)C=O [isobutyraldehyde] | 0.752 | 0.901 | 0.796 and 0.928 | 0.768 | 7.63 | 2.87 | 1.13 and 0.921 | 0.852 | 1.13 | 1.09 and 1.12 | 1.39 | 1.15 and 0.824 | 1 and 1.12 | 2.48 | 0.569 | 1.46 | 0.846 | 1.89 | 1.05 and 1.12 | 3.83
3 | CCCCCCCC=O [octyl aldehyde] | 0.825 | 0.718 | 0.28 | 0.632 | 1.15 | 1.08 | 0.997 | 1.07 | 1.18 | 1.02 | 1.19 | 0.903 | 1.09 | 1.4 | 1.18 | 1.13 | 1.14 | 1.22 | 0.891 | 1.29
4 | CC(=O)C(C)=O [diacetyl] | 1.46 | 1.44 | 1.05 | 1.4 | 0.986 | 1.15 | 0.873 | 1.01 | 1.16 | 1.47 | 0.958 | 1.23 | 1.17 | 0.999 | 0.859 | 1.14 | 0.782 | 0.969 | 1.31 | 0.994
5 | CCCCCCCC=CC=O [2-decenal] | 1.31 | 1.17 | 0.997 | 1.43 | 55.8 | 26.7 | 1.29 | 3.08 | 0.997 | 1.51 | 7.27 | 1.45 | 2.43 | 23.2 | 1.08 | 1.29 | 4.14 | 4.18 | 1.55 | 5.33
6 | CCCCCCCOC(C)=O [heptyl acetate] | 0.642 | 1 | 0.76 and 1.13 | 0.828 | 1.43 | 3.19 | 0.7 and 0.773 | 0.661 | 1.59 | 1.07 and 1.38 | 1.29 | 1.29 and 0.93 | 0.803 and 1.34 | 1.07 | 0.834 | 0.819 | 0.842 | 0.702 | 1.09 and 1.25 | 0.477
7 | CC1=CCC(C(C)(C)O)CC1 (stereo not given) [terpineol] | 1.26 | 1.08 | 1.33 | 1.32 | 1.13 | 1.11 | 0.78 | 1.08 | 1.26 | 0.75 | 1.54 | 0.605 | 0.916 | 1.31 | 1.11 | 1.85 | 0.939 | 0.877 | 0.873 | 1.25
8 | CC1CCC(C(C)C)C(O)C1 (single isomer, unassigned; (+)) [(+)-menthol] | 1.36 | 1.22 | 0.87 | 0.972 | 37.5 | 23.4 | 1.31 | 1.48 | 1.22 | 1.16 | 3.67 | 1.24 | 1.15 | 18.3 | 0.772 | 1.38 | 4 | 18.4 | 0.883 | 3.33
9 | CC(C)C(=O)O [isobutyric acid] | 0.575 | 0.823 | 1.15 and 0.855 | 0.744 | 1.29 | 0.945 | 0.957 and 0.79 | 1.49 | 1.4 | 1.05 and 0.97 | 1.28 | 1.12 and 0.775 | 0.903 and 0.947 | 1.11 | 0.746 | 0.941 | 0.991 | 0.595 | 1.02 and 0.814 | 0.627
10 | CCCCCCOC(=O)CCC [hexyl butyrate] | 0.696 | 0.936 | 1.09 and 0.862 | 0.65 | 0.799 | 1.04 | 0.963 and 0.865 | 0.604 | 1.56 | 1.11 and 0.861 | 0.959 | 1.06 and 0.88 | 0.873 and 0.834 | 0.802 | 1.04 | 1.08 | 1.24 | 0.825 | 1.2 and 1.16 | 0.333
11 | CCCCCCCCCC=O [decyl aldehyde] | 1.74 | 1.32 | 1.14 | 1.54 | 1.19 | 1.3 | 0.872 | 1.4 | 1.45 | 1.03 | 1.36 | 1.26 | 1.17 | 1.25 | 0.734 | 1.35 | 0.925 | 1.11 | 1.53 | 1.09
12 | CC(=O)OCC=C(C)CCC=C(C)C [geranyl acetate] | 0.733 | 1.02 | 0.756 and 1.23 | 0.994 | 1.48 | 2.97 | 1.04 and 1.16 | 1.24 | 1.16 | 1.03 and 1.3 | 2.14 | 1.47 and 1.35 | 0.939 and 1.31 | 1.7 | 1.12 | 1.34 | 1.09 | 5.82 | 0.975 and 1.95 | 4.04
13 | CC12CCC(C1)C(C)(C)C2=O (stereo not given) [fenchone] | 1.01 | 0.944 | 0.902 | 0.971 | 0.97 | 1.1 | 0.887 | 1.06 | 1.21 | 1.49 | 0.872 | 1.06 | 1.07 | 1.1 | 0.601 | 0.99 | 0.688 | 0.994 | 1.24 | 1.11
14 | CC=Cc1ccc(O)c(OC)c1 [isoeugenol] | 0.958 | 1.37 | 1.01 and 1.69 | 1.31 | 1.75 | 1.77 | 1.13 and 1.63 | 1.18 | 1.19 | 1.08 and 2.28 | 0.955 | 1.97 and 1.6 | 1.54 and 2.79 | 2.02 | 2.46 | 1.65 | 0.964 | 1.5 | 0.988 and 2.06 | 0.61
15 | CCCCCCCCOC(C)=O [octyl acetate] | 0.95 | 0.862 | 0.325 | 0.982 | 1.21 | 1.07 | 0.972 | 0.855 | 1.15 | 1.08 | 0.995 | 1.18 | 0.929 | 1.13 | 0.867 | 1.4 | 1.23 | 1.22 | 0.978 | 1.02
16 | CCCC(=O)O [butyric acid] | 0.239 | 0.273 | 0.73 | 0.265 | 1.17 | 1.21 | 1.15 | 1.48 | 0.82 | 1.1 | 1.38 | 1.04 | 1.16 | 1.29 | 1.49 | 0.862 | 0.981 | 1.29 | 1.07 | 1.23
17 | C=C(C)C1CC=CCC1 (stereo not given) [r-limonene] | 1.4 and 0.987 | 1.24 and 0.949 | 1.18 and 0.551 | 1.28 and 0.971 | 1.7 and 1.1 | 1.02 and 0.746 | 0.981 | 1.41 and 1.02 | 1.35 and 0.623 | 1.04 and 0.561 and 0.831 | 1.33 and 2.34 | 0.554 and 0.94 and 0.795 | 1.15 and 0.846 and 0.868 | 1.44 and 0.905 | 1.49 | 1.4 and 0.478 | 1.2 and 1.83 | 0.98 and 1.84 | 0.991 | 1.24 and 1.37
18 | C=CCc1ccc(OC(C)=O)c(OC)c1 [eugenol acetate] | 1.41 | 1.52 | 1.85 | 1.78 | 1.67 | 2.03 | 1.11 | 1.66 | 1.98 | 1.63 | 1.82 | 2.03 | 1.64 | 1.9 | 2 | 2 | 1.27 | 1.82 | 1.66 | 1.76
19 | CC(C)=CCCC(C)=CC=O [citral] | 0.299 | 0.308 | 0.797 | 0.288 | 1.05 | 1.31 | 1.12 | 1.43 | 0.914 | 1.24 | 1.28 | 1.12 | 0.884 | 1.1 | 1.08 | 0.986 | 0.926 | 1.28 | 1.09 | 1.08
20 | C=CCSCC=C [diallyl sulfide] | 1.32 | 1.3 | 0.992 | 1.24 | 1.12 | 1.18 | 0.985 | 0.921 | 1.24 | 1.39 | 0.957 | 1.13 | 1.21 | 1.16 | 0.766 | 1.23 | 0.707 | 1 | 1.33 | 1.15
21 | COC(=O)c1ccccc1O [methyl salicylate] | 1.31 | 1.02 | 0.287 | 1 | 1.12 | 0.994 | 0.92 | 0.904 | 0.811 | 1.12 | 1.19 | 0.806 | 1.01 | 1.07 | 0.996 | 1.06 | 1.25 | 1.26 | 0.841 | 0.951
22 | CCCCCC(=O)O [caproic acid] | 0.293 | 0.24 | 0.682 | 0.22 | 1.01 | 1.2 | 1.03 | 1.11 | 0.876 | 1.03 | 1.26 | 0.893 | 1 | 1.18 | 1.14 | 1.07 | 1.01 | 1.34 | 0.954 | 1.09
23 | O=CCc1ccccc1 [phenyl acetaldehyde] | 1.4 | 1.38 | 1.55 | 1.74 | 1.53 | 1.31 | 0.903 | 1.13 | 1.07 | 1.43 | 1.31 | 0.847 | 1.42 | 1.42 | 1.15 | 1.59 | 1.02 | 0.852 | 1.17 | 1.35
24 | CC12CCC(CC1)C(C)(C)O2 [cineole] | 0.261 | 0.218 | 0.799 | 0.209 | 0.773 | 0.953 | 1.02 | 0.892 | 0.857 | 0.97 | 0.848 | 1.02 | 1.01 | 1.15 | 1.18 | 0.807 | 0.902 | 1.04 | 1.19 | 0.832
25 | COc1cc(C)ccc1O [2-methoxy-4-methylphenol] | 1.08 | 1.06 | 1.24 | 0.807 | 17.2 | 14 | 0.966 | 1.18 | 1.12 | 0.847 | 3.17 | 1.07 | 0.987 | 11.4 | 0.819 | 0.9 | 2.27 | 1.6 | 0.97 | 1.35
26 | C=CCc1ccc(OC)c(OC)c1 [eugenol methyl ether] | 1.38 | 1.51 | 1.66 | 1.71 | 1.32 | 1.75 | 0.924 | 1.64 | 2.01 | 1.35 | 1.44 | 1.5 | 1.3 | 1.66 | 0.738 | 1.61 | 1.17 | 1.4 | 1.6 | 1.49
27 | COc1ccccc1O [guaiacol] | 0.558 | 0.807 | 1.21 and 0.926 | 0.752 | 1.66 | 1.54 | 0.801 and 0.963 | 1.02 | 1.26 | 1.16 and 0.982 | 2.1 | 1.07 and 0.85 | 0.752 and 1.06 | 1.45 | 0.751 | 1.16 | 0.962 | 1.25 | 0.959 and 1.05 | 0.693

Taken from above.
Value of CCCCCCCC=O [octyl aldehyde] under odorant receptor activation (OR1N2 clone 1505): 1.09
Value of CC12CCC(C1)C(C)(C)C2=O (stereo not given) [fenchone] under odorant receptor activation (OR2A14 clone 1083): 1.11

Arranged by molecular weight (falling): three of the compounds above.
Row | Structure (SMILES) | odorant receptor activation (OR1J2 clone 1443) | odorant receptor activation (OR1J4 clone 1429) | odorant receptor activation (OR1K1 clone 1315) | odorant receptor activation (OR1L1 clone 1379) | odorant receptor activation (OR1L3 clone 1090) | odorant receptor activation (OR1L4 G234R clone 1102) | odorant receptor activation [1] | odorant receptor activation (OR1L8 clone 1088) | odorant receptor activation (OR1M1 clone 1198) | odorant receptor activation (OR1N1 clone 1463) | odorant receptor activation [2] | odorant receptor activation [3] | odorant receptor activation (OR1N2 clone 1505) | odorant receptor activation [4] | odorant receptor activation (OR1S1 clone 1455) | odorant receptor activation (OR1S2 I46T clone 1137) | odorant receptor activation (OR2A1 clone 1078) | odorant receptor activation (OR2A12 clone 1085) | odorant receptor activation (OR2A14 Indel clone 1540) | odorant receptor activation (OR2A14 clone 1083)
18 | C=CCc1ccc(OC(C)=O)c(OC)c1 [eugenol acetate] | 1.41 | 1.52 | 1.85 | 1.78 | 1.67 | 2.03 | 1.11 | 1.66 | 1.98 | 1.63 | 1.82 | 2.03 | 1.64 | 1.9 | 2 | 2 | 1.27 | 1.82 | 1.66 | 1.76
15 | CCCCCCCCOC(C)=O [octyl acetate] | 0.95 | 0.862 | 0.325 | 0.982 | 1.21 | 1.07 | 0.972 | 0.855 | 1.15 | 1.08 | 0.995 | 1.18 | 0.929 | 1.13 | 0.867 | 1.4 | 1.23 | 1.22 | 0.978 | 1.02
20 | C=CCSCC=C [diallyl sulfide] | 1.32 | 1.3 | 0.992 | 1.24 | 1.12 | 1.18 | 0.985 | 0.921 | 1.24 | 1.39 | 0.957 | 1.13 | 1.21 | 1.16 | 0.766 | 1.23 | 0.707 | 1 | 1.33 | 1.15
